Experimental data as given in the supplement of paper PMC4604168 (melanoma cell lines).
The other results are listed elsewhere or left out. Single values are uncertain, as repeats are few or missing.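 Cells were imaged in 1,536-well plates, and nuclei stained with an antibody against cleaved PARP were counted against all DNA-stained nuclei to give the apoptosis fraction. Screening doses were chosen to leave most cells alive, and resting and induced cleaved-PARP levels differ strongly between cell lines.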

Tests used:
Test in all cases: cleaved PARP positive nuclei fraction relative to DMSO control; melanoma cells; higher = more apoptosis
Details in all cases: library dose: low library concentration; 72 h
[1] = test system: 501Mel
[2] = test system: A101D
[3] = test system: A2058
[4] = test system: A375
[5] = test system: C32
[6] = test system: CBRC008 (line from a melanoma biopsy)
[7] = test system: CBRC013 (line from a melanoma biopsy)
[8] = test system: CBRC014 (line from a melanoma biopsy)
[9] = test system: CBRC016 (line from a melanoma biopsy)
[10] = test system: CBRC017 (line from a melanoma biopsy)

| SMILES | cleaved PARP positive nuclei fraction [1] | cleaved PARP positive nuclei fraction [2] | cleaved PARP positive nuclei fraction [3] | cleaved PARP positive nuclei fraction [4] | cleaved PARP positive nuclei fraction [5] | cleaved PARP positive nuclei fraction [6] | cleaved PARP positive nuclei fraction [7] | cleaved PARP positive nuclei fraction [8] | cleaved PARP positive nuclei fraction [9] | cleaved PARP positive nuclei fraction [10] |
| --- | --- | --- | --- | --- | --- | --- | --- | --- | --- | --- |
| Cn1cc(C2=C(c3cn(C4CCN(Cc5ccccn5)CC4)c4ccccc34)C(=O)NC2=O)c2ccccc21 [Enzastaurin] + CN(NC(=O)CC(=O)NN(C)C(=S)c1ccccc1)C(=S)c1ccccc1 [STA4783] (first compound 0.8 µM, partner dose 0.006 µM) | 139% | 93% | 192% | 7130% | 119% | 3260% | 64.9% | 1150% | 90.1% | 267% |
| N.N.[Cl][Pt][Cl] [cisplatin] + CN(NC(=O)CC(=O)NN(C)C(=S)c1ccccc1)C(=S)c1ccccc1 [STA4783] (first compound 1.6 µM, partner dose 0.006 µM) | 76.2% | 270% | 28.7% | 54.8% | 81.1% | 236% | 77.3% | 101% | 112% | 98.8% |
| Cn1cc(C2=C(c3cn(C4CCN(Cc5ccccn5)CC4)c4ccccc34)C(=O)NC2=O)c2ccccc21 [Enzastaurin] + Cn1cncc1[C@@](N)(c1ccc(Cl)cc1)c1ccc2c(c1)c(-c1cccc(Cl)c1)cc(=O)n2C [tipifarnib] (first compound 0.8 µM, partner dose 0.01 µM) | 258% | 88.1% | 129% | 83.8% | 81.8% | 86.9% | 56.6% | 126% | 87.4% | 84.5% |
| C[As](C)SC[C@H](NC(=O)CC[C@H](N)C(=O)O)C(=O)NCC(=O)O [Darinaparsin] + C[C@@H]1CCN(C(=O)CC#N)C[C@@H]1N(C)c1ncnc2[nH]ccc12 [CP690550] (first compound 0.4 µM, partner dose 1 µM) | 93.4% | 72.6% | 33.9% | 101% | 112% | 29.8% | 133% | 90.5% | 60.7% | 77.2% |
| C[C@]12O[C@H](C[C@]1(O)CO)n1c3ccccc3c3c4c(c5c6ccccc6n2c5c31)CNC4=O [Lestaurtinib] + CC(C)(C)c1cnc(CSc2cnc(NC(=O)C3CCNCC3)s2)o1 [SNS-032] (first compound 0.004 µM, partner dose 0.01 µM) | 92.1% | 87.7% | 75.7% | 46.9% | 131% | 127% | 143% | 90.6% | 48% | 70.9% |
| Cn1cc(C2=C(c3cn(C4CCN(Cc5ccccn5)CC4)c4ccccc34)C(=O)NC2=O)c2ccccc21 [Enzastaurin] + NC(=O)Nc1cc(-c2cccc(F)c2)sc1C(=O)N[C@H]1CCCNC1 [AZD7762] (first compound 0.8 µM, partner dose 0.02 µM) | 95.1% | 133% | 136% | 356% | 144% | 168% | 94.2% | 105% | 106% | 102% |
| C[As](C)SC[C@H](NC(=O)CC[C@H](N)C(=O)O)C(=O)NCC(=O)O [Darinaparsin] + O=C(Nc1cccc(Cl)c1)Nc1ncc(CCNc2ncnc3ccsc23)s1 [SNS314] (first compound 0.4 µM, partner dose 0.0008 µM) | 92.3% | 76.8% | 97.9% | 46.2% | 251% | 53.3% | 94% | 86.3% | 104% | 195% |
| N.N.[Cl][Pt][Cl] [cisplatin] + CN(C)S(=O)(=O)c1ccc2c(c1)/C(=C/c1cc3c([nH]1)CCCC3)C(=O)N2 [SU6656] (first compound 1.6 µM, partner dose 0.4 µM) | 80.5% | 121% | 81.7% | 70.6% | 95.2% | 407% | 97.2% | 146% | 121% | 121% |
| Cn1cc(C2=C(c3cn(C4CCN(Cc5ccccn5)CC4)c4ccccc34)C(=O)NC2=O)c2ccccc21 [Enzastaurin] + Cc1cc(N2CCOCC2)cc2[nH]c(-c3c(NC[C@@H](O)c4cccc(Cl)c4)cc[nH]c3=O)nc12 [BMS536924] (first compound 0.8 µM, partner dose 0.2 µM) | 90.3% | 36.1% | 63.9% | 253% | 82.3% | 101% | 104% | 91.2% | 69.8% | 98.4% |
| N.N.[Cl][Pt][Cl] [cisplatin] + COc1cc(Nc2ncc(F)c(Nc3ccc4c(n3)NC(=O)C(C)(C)O4)n2)cc(OC)c1OC [Tamatinib] (first compound 1.6 µM, partner dose 0.4 µM) | 103% | 77.1% | 147% | 172% | 59.8% | 283% | 87.2% | 123% | 113% | 107% |
| C[As](C)SC[C@H](NC(=O)CC[C@H](N)C(=O)O)C(=O)NCC(=O)O [Darinaparsin] + O=C(O)c1ccc(-c2c[nH]c3ncc(-c4ccccc4)cc23)cc1C1CCCC1 [GSK650394] (first compound 0.4 µM, partner dose 0.16 µM) | 186% | 82.4% | 140% | 173% | 51.3% | 112% | 128% | 83.8% | 67.8% | 89.2% |
| Cn1cc(C2=C(c3cn(C4CCN(Cc5ccccn5)CC4)c4ccccc34)C(=O)NC2=O)c2ccccc21 [Enzastaurin] + CN(C)S(=O)(=O)c1ccc2c(c1)/C(=C/c1cc3c([nH]1)CCCC3)C(=O)N2 [SU6656] (first compound 0.8 µM, partner dose 0.4 µM) | 87.4% | 92.6% | 71.1% | 55.1% | 96.4% | 287% | 67.5% | 223% | 169% | 127% |
| C[As](C)SC[C@H](NC(=O)CC[C@H](N)C(=O)O)C(=O)NCC(=O)O [Darinaparsin] + O=C(CCCCCCC(=O)Nc1ccccc1)NO [vorinostat] (first compound 0.4 µM, partner dose 0.08 µM) | 93% | 74.4% | 42.1% | 82.6% | 75.3% | 60.5% | 103% | 86% | 31.2% | 135% |
| Cn1cc(C2=C(c3cn(C4CCN(Cc5ccccn5)CC4)c4ccccc34)C(=O)NC2=O)c2ccccc21 [Enzastaurin] + NCC(=O)Nc1ccc(-n2nc(C(F)(F)F)cc2-c2ccc3c(ccc4ccccc43)c2)cc1 [OSU03012] (first compound 0.8 µM, partner dose 1 µM) | 183% | 46.6% | 133% | 2530% | 153% | 85.4% | 84.8% | 89.6% | 131% | 92.1% |
| N.N.[Cl][Pt][Cl] [cisplatin] + OCCn1cc(-c2cnc3nnn(Cc4ccc5ncccc5c4)c3n2)cn1 [PF04217903] (first compound 1.6 µM, partner dose 1 µM) | 234% | 182% | 104% | 114% | 77.3% | 219% | 76.7% | 103% | 211% | 106% |
| C[C@]12O[C@H](C[C@]1(O)CO)n1c3ccccc3c3c4c(c5c6ccccc6n2c5c31)CNC4=O [Lestaurtinib] + C=CCn1c(=O)c2cnc(Nc3ccc(N4CCN(C)CC4)cc3)nc2n1-c1cccc(C(C)(C)O)n1 [MK1775] (first compound 0.004 µM, partner dose 0.02 µM) | 85.9% | 96.5% | 100% | 135% | 84.2% | 81.2% | 116% | 95.4% | 35.4% | 80.2% |
| C[C@]12O[C@H](C[C@]1(O)CO)n1c3ccccc3c3c4c(c5c6ccccc6n2c5c31)CNC4=O [Lestaurtinib] + Cc1ccc(NC(=O)c2cccc(N(C)C)c2)cc1NC(=O)c1ccc(O)cc1 [ZM336372] (first compound 0.004 µM, partner dose 2 µM) | 45.3% | 96.4% | 29.8% | 121% | 98.9% | 114% | 92.9% | 93.4% | 135% | 123% |
| N.N.[Cl][Pt][Cl] [cisplatin] + NC(=O)Nc1cc(-c2cccc(F)c2)sc1C(=O)N[C@H]1CCCNC1 [AZD7762] (first compound 1.6 µM, partner dose 0.02 µM) | 87.3% | 97.2% | 65% | 266% | 89.8% | 121% | 97.4% | 96.5% | 257% | 99% |
| C[C@]12O[C@H](C[C@]1(O)CO)n1c3ccccc3c3c4c(c5c6ccccc6n2c5c31)CNC4=O [Lestaurtinib] + COc1cc(Nc2ncc(F)c(Nc3ccc4c(n3)NC(=O)C(C)(C)O4)n2)cc(OC)c1OC [Tamatinib] (first compound 0.004 µM, partner dose 0.4 µM) | 165% | 86.3% | 107% | 110% | 72.1% | 238% | 113% | 75.8% | 145% | 91.5% |
| C[C@]12O[C@H](C[C@]1(O)CO)n1c3ccccc3c3c4c(c5c6ccccc6n2c5c31)CNC4=O [Lestaurtinib] + CC1(C)NC(=O)N(c2ccc([N+](=O)[O-])c(C(F)(F)F)c2)C1=O [nilutamide] (first compound 0.004 µM, partner dose 1 µM) | 86.8% | 174% | 87% | 76.8% | 24.7% | 140% | 81% | 78.6% | 32% | 70% |
| C[As](C)SC[C@H](NC(=O)CC[C@H](N)C(=O)O)C(=O)NCC(=O)O [Darinaparsin] + OCCn1cc(-c2cnc3nnn(Cc4ccc5ncccc5c4)c3n2)cn1 [PF04217903] (first compound 0.4 µM, partner dose 1 µM) | 98.2% | 37.1% | 25.3% | 105% | 169% | 93.9% | 100% | 75.9% | 24% | 138% |
| N.N.[Cl][Pt][Cl] [cisplatin] + C[C@@H]1CCN(C(=O)CC#N)C[C@@H]1N(C)c1ncnc2[nH]ccc12 [CP690550] (first compound 1.6 µM, partner dose 1 µM) | 123% | 185% | 87.3% | 81% | 116% | 127% | 50.8% | 92.9% | 174% | 80.8% |

Taken from above for reference:

| SMILES | cleaved PARP positive nuclei fraction [1] | cleaved PARP positive nuclei fraction [2] | cleaved PARP positive nuclei fraction [3] | cleaved PARP positive nuclei fraction [4] | cleaved PARP positive nuclei fraction [5] | cleaved PARP positive nuclei fraction [6] | cleaved PARP positive nuclei fraction [7] | cleaved PARP positive nuclei fraction [8] | cleaved PARP positive nuclei fraction [9] | cleaved PARP positive nuclei fraction [10] |
| --- | --- | --- | --- | --- | --- | --- | --- | --- | --- | --- |
| C[C@]12O[C@H](C[C@]1(O)CO)n1c3ccccc3c3c4c(c5c6ccccc6n2c5c31)CNC4=O [Lestaurtinib] + CC(C)(C)c1cnc(CSc2cnc(NC(=O)C3CCNCC3)s2)o1 [SNS-032] (first compound 0.004 µM, partner dose 0.01 µM) | 92.1% | 87.7% | 75.7% | 46.9% | 131% | 127% | 143% | 90.6% | 48% | 70.9% |
| Cn1cc(C2=C(c3cn(C4CCN(Cc5ccccn5)CC4)c4ccccc34)C(=O)NC2=O)c2ccccc21 [Enzastaurin] + NC(=O)Nc1cc(-c2cccc(F)c2)sc1C(=O)N[C@H]1CCCNC1 [AZD7762] (first compound 0.8 µM, partner dose 0.02 µM) | 95.1% | 133% | 136% | 356% | 144% | 168% | 94.2% | 105% | 106% | 102% |
